No constants are given. Whether binding was seen depends on the method and setting. For some assays here: Binding seen in cells or lysates may run through a third protein. Some results given as binding are weak or reduced against the parent protein; the word gives no strength. Sequences can lack the tags named with a protein.
T1: PfRbx1 with C-terminal Myc-tag (P. falciparum) (UniProt O77367)
T1 sequence: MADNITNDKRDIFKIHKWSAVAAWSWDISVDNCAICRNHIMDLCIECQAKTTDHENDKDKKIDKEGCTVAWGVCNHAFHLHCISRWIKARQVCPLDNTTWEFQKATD

Chains of the proteins cited; added tags and fusions are not shown.
UniProt C6KTD3: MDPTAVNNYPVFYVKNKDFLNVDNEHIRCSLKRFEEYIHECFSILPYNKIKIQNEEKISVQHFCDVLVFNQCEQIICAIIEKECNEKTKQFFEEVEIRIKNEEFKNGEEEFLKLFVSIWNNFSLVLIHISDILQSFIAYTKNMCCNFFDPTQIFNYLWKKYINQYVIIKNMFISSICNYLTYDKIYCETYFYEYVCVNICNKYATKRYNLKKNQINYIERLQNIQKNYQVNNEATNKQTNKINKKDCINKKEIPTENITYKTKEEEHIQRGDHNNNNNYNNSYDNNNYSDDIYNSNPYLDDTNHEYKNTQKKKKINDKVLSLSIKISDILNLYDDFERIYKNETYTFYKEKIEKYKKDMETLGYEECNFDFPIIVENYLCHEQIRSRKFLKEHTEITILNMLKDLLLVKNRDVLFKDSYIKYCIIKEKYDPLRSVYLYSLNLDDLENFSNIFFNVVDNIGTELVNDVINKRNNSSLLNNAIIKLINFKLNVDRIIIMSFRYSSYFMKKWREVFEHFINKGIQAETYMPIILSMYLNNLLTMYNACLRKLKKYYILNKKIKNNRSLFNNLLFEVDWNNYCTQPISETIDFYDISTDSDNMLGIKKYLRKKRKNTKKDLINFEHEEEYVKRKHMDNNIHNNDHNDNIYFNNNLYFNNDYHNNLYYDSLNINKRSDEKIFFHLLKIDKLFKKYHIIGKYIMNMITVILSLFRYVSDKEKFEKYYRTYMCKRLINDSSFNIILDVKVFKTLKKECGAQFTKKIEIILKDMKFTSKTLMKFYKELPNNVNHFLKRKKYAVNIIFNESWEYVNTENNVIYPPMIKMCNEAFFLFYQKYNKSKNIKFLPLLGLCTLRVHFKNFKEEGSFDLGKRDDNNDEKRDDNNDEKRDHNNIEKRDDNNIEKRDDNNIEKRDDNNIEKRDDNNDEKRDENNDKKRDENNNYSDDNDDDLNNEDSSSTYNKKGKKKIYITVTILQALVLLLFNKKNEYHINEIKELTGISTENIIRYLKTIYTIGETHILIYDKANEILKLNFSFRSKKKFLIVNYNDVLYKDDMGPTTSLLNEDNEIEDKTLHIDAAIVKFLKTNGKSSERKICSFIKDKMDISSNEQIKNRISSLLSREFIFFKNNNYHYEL

T2: 6×His-tagged PfSkp1 (P. falciparum), Q8ID38
T2 chain: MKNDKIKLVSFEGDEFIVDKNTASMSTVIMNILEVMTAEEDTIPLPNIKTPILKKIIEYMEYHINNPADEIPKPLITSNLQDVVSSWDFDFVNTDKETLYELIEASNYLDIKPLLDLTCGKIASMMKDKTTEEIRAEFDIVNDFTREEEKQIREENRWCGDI


What was measured:
[1] = target: T1, PfRbx1 with C-terminal Myc-tag (P. falciparum); assay: co-IP; equal amounts of PfRbx1myc-epi and PfCul2KDD10 parasite lysates mixed, supplemented with 2 mM ATP, 5 mM MgCl2 and 0.2 mM DTT, 2 h at room temperature; Myc-Trap immunoprecipitation; blot with anti-Myc, then anti-HA
[2] = target: T2, 6×His-tagged PfSkp1 (P. falciparum), …; assay: far-Western, overlay or dot blot; dot blot protein overlay: different amounts of HisSkp, HisSUMO/Rbx or HisSUMO spotted on nitrocellulose, blocked (3% BSA in PBS-T), overlaid with 10 μg of GST or GST-tagged protein for 12 h at 4°C, detected with anti-GST antibodies; both purified; conditions: remark: other sources report otherwise

Molecule	binding [1]	binding [2]
PfCullin-2/cDDHA (from UniProt C6KTD3 1-1129)	binds	
6×His/SUMO-tagged PfRbx1 (natural protein, P. falciparum, UniProt O77367 1-107, looked up, P. falciparum Rbx1 (PfRbx1, PF3D7_0319100), complete coding region, subcloned into pSMO; also called HisSUMO/Rbx; HisSUMO/PfRbx1; source: E. coli Rosetta-gami 2(DE3) pLysS, purified (Ni-NTA, native conditions); not shown: His6, N-terminal, kept; SUMO, N-terminal, kept) MADNITNDKRDIFKIHKWSAVAAWSWDISVDNCAICRNHIMDLCIECQAKTTDHENDKDKKIDKEGCTVAWGVCNHAFHLHCISRWIKARQVCPLDNTTWEFQKATD		no binding (tested: 10 μg overlaid)

Reference: article PMC10927090, “Plasmodium falciparum contains functional SCF and CRL4 ubiquitin E3 ligases, and CRL4 is critical for cell division and membrane integrity” (PLOS Pathogens, 2024)
